From ChEMBL document CHEMBL3988442, “University of Dundee, Small-Polar-MMV Screening Library” (2021).

Protein sequences, listed by entry. Tags and fused reporters are not part of them. Residues count along the entry.
UniProt P9WFT3, whole entry: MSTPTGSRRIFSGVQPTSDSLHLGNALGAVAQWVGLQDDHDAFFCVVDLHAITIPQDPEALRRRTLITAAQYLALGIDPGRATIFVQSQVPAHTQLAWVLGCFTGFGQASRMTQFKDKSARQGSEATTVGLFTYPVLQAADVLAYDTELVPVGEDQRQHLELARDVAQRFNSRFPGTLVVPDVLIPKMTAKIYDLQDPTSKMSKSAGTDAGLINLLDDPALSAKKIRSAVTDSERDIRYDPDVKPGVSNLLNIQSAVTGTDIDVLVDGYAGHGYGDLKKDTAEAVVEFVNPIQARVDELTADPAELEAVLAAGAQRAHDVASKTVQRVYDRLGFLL
UniProt Q8IDJ8, 1-583: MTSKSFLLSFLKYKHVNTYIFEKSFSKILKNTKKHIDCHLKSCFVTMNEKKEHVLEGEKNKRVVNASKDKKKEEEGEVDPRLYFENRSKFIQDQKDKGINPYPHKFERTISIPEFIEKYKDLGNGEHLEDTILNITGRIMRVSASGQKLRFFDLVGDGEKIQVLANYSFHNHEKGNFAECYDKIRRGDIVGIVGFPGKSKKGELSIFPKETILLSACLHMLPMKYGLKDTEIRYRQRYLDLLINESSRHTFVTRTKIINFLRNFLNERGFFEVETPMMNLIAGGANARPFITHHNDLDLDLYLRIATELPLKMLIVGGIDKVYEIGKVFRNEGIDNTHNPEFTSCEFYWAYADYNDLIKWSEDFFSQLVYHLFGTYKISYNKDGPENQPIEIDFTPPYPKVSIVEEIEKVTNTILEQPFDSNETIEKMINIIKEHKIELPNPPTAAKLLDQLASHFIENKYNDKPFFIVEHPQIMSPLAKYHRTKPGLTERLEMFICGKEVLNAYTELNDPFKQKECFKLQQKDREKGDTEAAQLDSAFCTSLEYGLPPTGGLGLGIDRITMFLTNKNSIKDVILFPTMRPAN
UniProt P9WPC5, whole entry: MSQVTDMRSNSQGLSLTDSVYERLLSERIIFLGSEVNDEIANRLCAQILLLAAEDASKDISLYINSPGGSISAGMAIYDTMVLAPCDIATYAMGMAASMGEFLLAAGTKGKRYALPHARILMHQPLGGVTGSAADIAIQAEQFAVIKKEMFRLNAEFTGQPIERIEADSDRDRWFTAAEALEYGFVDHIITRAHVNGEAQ
UniProt P9WPC3, whole entry partner: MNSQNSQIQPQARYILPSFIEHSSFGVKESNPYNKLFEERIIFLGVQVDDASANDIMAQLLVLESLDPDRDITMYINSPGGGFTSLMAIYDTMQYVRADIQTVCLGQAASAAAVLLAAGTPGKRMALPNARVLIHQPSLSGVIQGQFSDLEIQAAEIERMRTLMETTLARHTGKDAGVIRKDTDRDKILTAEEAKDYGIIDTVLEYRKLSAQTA

Each number is a percent effect as filed.
The controls that fix the scale are not given in the record; negative values are as filed.
This is an unselected part of the compounds tested.
A dash means the value is not listed here; it may have been measured.

MtTrpRS: 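Tryptophan-tRNA ligase, Mycobacterium tuberculosis (UniProt P9WFT3). Enzyme assay of tryptophanyl-tRNA synthetase; the read-out is not stated. Concentration: 10 µM. Direction is not recorded; retested compounds ran higher, which suggests that high means inhibition. About 65,000 compounds were tested under these conditions; 0.098% (about 64) showed 50% or more at least once.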
PfKRS1: 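Lysine-tRNA ligase, Plasmodium falciparum 3D7 (UniProt Q8IDJ8). Enzyme assay of the cytosolic lysyl-tRNA synthetase in 384-well plates, read by luminescence. Tested at 30 µM. Higher reads as stronger inhibition, judged from the few compounds that gave an IC50. Of about 69,000 compounds tested this way, about 49 (0.071%) reached 50% or more in at least one test.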
ClpP1P2: 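ClpP1P2, Mycobacterium tuberculosis (UniProt P9WPC5 and UniProt P9WPC3). Protease assay of ClpP1P2, read by the AMC dye that it sets free. Tested at 50 µM. Higher reads as stronger inhibition, judged from the few compounds that gave an IC50. Most other retested compounds had strongly negative values. About 69,000 compounds were tested under these conditions; 0.015% (about 10) showed 50% or more at least once.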

{"structure": "Nc1nc2nc(C3CCCN(C(=O)c4cnccn4)C3)ccc2s1", "stereo": "centres unmarked", "PfKRS1": 1.924, "ClpP1P2": 3.362}
{"structure": "CC(C)CC(NC(=O)c1ccco1)c1nc2cccnc2n1C", "stereo": "centres unmarked", "MtTrpRS": -0.4342, "PfKRS1": -0.08583, "ClpP1P2": -11.57}
{"structure": "COc1cccc(CCNC(=O)CN2CCN(C)CC2C)c1", "stereo": "centres unmarked", "MtTrpRS": -4.373, "PfKRS1": 9.417, "ClpP1P2": 15.26}
{"structure": "COC1CCCOC12CCN(C(=O)NCc1ccco1)CC2", "stereo": "centres unmarked", "MtTrpRS": 0.1361, "PfKRS1": 10.06, "ClpP1P2": -5.093}
{"structure": "CS(=O)(=O)NCCC1CCCN(Cc2ccccc2F)C1", "stereo": "centres unmarked", "MtTrpRS": -0.1432, "PfKRS1": 3.086, "ClpP1P2": -5.806}
{"structure": "CC(Cn1ccnc1)NCc1nncn1C1CCCCC1", "stereo": "centres unmarked", "MtTrpRS": -2.862, "PfKRS1": -0.5826, "ClpP1P2": -5.264}
{"structure": "Cc1oc(-c2cccc(F)c2F)nc1CN(C)CCO", "MtTrpRS": 4.51, "PfKRS1": 5.492, "ClpP1P2": -9.531}
{"structure": "Fc1cccc(CN2CCOC3(COCCN(CC4CC4)C3)C2)c1", "stereo": "centres unmarked", "PfKRS1": 2.924, "ClpP1P2": -7.929}
{"structure": "Cc1nnc(SC2CCc3ccccc3NC2=O)o1", "stereo": "centres unmarked", "MtTrpRS": -0.678, "PfKRS1": -1.322, "ClpP1P2": -17.18}
{"structure": "COc1cccc(S(=O)(=O)N2C[C@@H](O)[C@H](N(C)C)C2)c1", "MtTrpRS": 0.07807, "PfKRS1": 3.585, "ClpP1P2": 7.983}
{"structure": "CCn1ccnc1CN1CCOC(CNc2cccnn2)C1", "stereo": "centres unmarked", "MtTrpRS": -5.356, "PfKRS1": 4.046, "ClpP1P2": 9.066}
{"structure": "COc1cccc(F)c1-c1nc2c([nH]1)c(C1CC1)nn2C", "MtTrpRS": 0.819, "PfKRS1": 0.2219, "ClpP1P2": -3.275}
{"structure": "Fc1ccc2c(c1)CCC2NCc1ccc(N2CCOCC2)cc1", "stereo": "centres unmarked", "MtTrpRS": 8.152, "PfKRS1": 2.008, "ClpP1P2": 0.4954}
{"structure": "Cn1cc(C(=O)NCC2CCN(C(=O)NC3CC3)CC2)cn1", "MtTrpRS": 1.372, "PfKRS1": -0.3444, "ClpP1P2": 9.036}
{"structure": "O=C(CN1CCCC1Cn1cncn1)NCCC1=CCCCC1", "stereo": "centres unmarked", "MtTrpRS": -7.45, "PfKRS1": -0.03946, "ClpP1P2": -21.32}
{"structure": "Cc1cccc(NC(=O)CNC(=O)Cn2ncc(Cl)c(Cl)c2=O)c1C", "MtTrpRS": 2.251, "PfKRS1": 6.202, "ClpP1P2": 13.52}
{"structure": "OC(CN1CCCc2ccc(F)cc21)Cn1cccn1", "stereo": "centres unmarked", "MtTrpRS": 2.601, "PfKRS1": 2.227, "ClpP1P2": 8.51}
{"structure": "CCc1ncc(C(=O)N(C)CC2Cc3ccccc3O2)cn1", "stereo": "centres unmarked", "MtTrpRS": 5.556, "PfKRS1": 1.323, "ClpP1P2": -11.33}
{"structure": "Cc1nc(N2CCN(C)CC2)ncc1C(=O)N1CC(C)(C)C(C)(O)C1", "stereo": "centres unmarked", "MtTrpRS": -0.6706, "PfKRS1": -3.679, "ClpP1P2": 7.186}
{"structure": "COCCN(CCOC)S(=O)(=O)N(C)Cc1ccncc1", "MtTrpRS": 7.869, "PfKRS1": 0.5823, "ClpP1P2": -2.58}
{"structure": "c1cncc(COCC2CC[C@H]3[C@H](CCN3CC3CCOCC3)O2)c1", "stereo": "some centres unmarked", "MtTrpRS": 5.989, "PfKRS1": -5.429, "ClpP1P2": -2.374}
{"structure": "O=C(c1ccccc1-c1ccccc1)N1C[C@@H]2CNC[C@]2(C(=O)O)C1", "MtTrpRS": -5.849, "PfKRS1": 2.027, "ClpP1P2": 7.424}
{"structure": "CCCN(C(=O)CN1CCn2c(nnc2C2CC2)C1)C1=CCCCC1", "MtTrpRS": 0.06536, "PfKRS1": 5.401, "ClpP1P2": -3.372}
{"structure": "O=C(NCCN1CCC(c2cccs2)CC1)c1ccc(F)cc1Cl", "MtTrpRS": -0.5869, "PfKRS1": -4.896, "ClpP1P2": -13.12}
{"structure": "Clc1ccc2oc(C3CCN(Cc4nc(C5CC5)no4)CC3)nc2c1", "MtTrpRS": 0.5485, "PfKRS1": 2.855, "ClpP1P2": 10.29}
{"structure": "CCOCc1cnc2n1CCN(C(=O)Cc1ccco1)C2C", "stereo": "centres unmarked", "MtTrpRS": -8.051, "PfKRS1": 2.937, "ClpP1P2": 3.549}
{"structure": "O=C(C1COc2ccccc2O1)N1Cc2cnn(CCO)c2C1", "stereo": "centres unmarked", "MtTrpRS": -6.278, "PfKRS1": 7.952, "ClpP1P2": 7.685}
{"structure": "Cc1cc(C)c2ncc(C#N)c(NC3CCN(CC(N)=O)CC3)c2c1", "MtTrpRS": 4.649, "PfKRS1": 4.001, "ClpP1P2": 6.74}
{"structure": "COc1ccnc(N2CCN(C(=O)c3cnn(C)c3C3CC3)CC2)n1", "MtTrpRS": -0.3353, "PfKRS1": 4.39, "ClpP1P2": -2.773}
{"structure": "COCCNC(=O)[C@@H](C)[C@@H]1CCc2c(C)cc(OCC(=O)O)c(C)c2C1", "MtTrpRS": -1.144, "PfKRS1": 7.282, "ClpP1P2": -2.518}
{"structure": "CN(C)C(=O)C1CN(Cc2nccs2)CCN(S(C)(=O)=O)C1", "stereo": "centres unmarked", "PfKRS1": 4.39, "ClpP1P2": 2.378}
{"structure": "COc1ccc(C(C)Nc2nc3c(C)nn(C)c3c(=O)n2C)cc1", "stereo": "centres unmarked", "MtTrpRS": 1.004, "PfKRS1": 7.736, "ClpP1P2": 0.4235}
{"structure": "CCN1CCOCC2(CCCN(C(=O)c3ccccc3F)C2)C1", "stereo": "centres unmarked", "MtTrpRS": 2.653, "PfKRS1": 1.714, "ClpP1P2": 18.16}
{"structure": "Cc1cnn(CC2CCCCN2C(=O)c2ccc(NC3CC3)nc2)c1", "stereo": "centres unmarked", "MtTrpRS": -6.283, "PfKRS1": 0.7162, "ClpP1P2": -28.3}
{"structure": "CCCc1ccc(CN2CCC3(CC2)CNC(=O)C3)o1", "MtTrpRS": 2.495, "PfKRS1": 2.687, "ClpP1P2": 2.853}

The first 2 entries again:

| structure | MtTrpRS | PfKRS1 | ClpP1P2 |
|---|---|---|---|
| `Nc1nc2nc(C3CCCN(C(=O)c4cnccn4)C3)ccc2s1` (centres unmarked) | - | 1.924 | 3.362 |
| `CC(C)CC(NC(=O)c1ccco1)c1nc2cccnc2n1C` (centres unmarked) | -0.4342 | -0.08583 | -11.57 |